Holding throughout (test): affinity purification with mass spectrometry; 100 ug His10-SUMO2/3 WT, IKR or QFI on Ni-NTA beads, incubated with whole-cell HeLa lysate 2 h at 4°C in 50 mM tris pH 7.5, 150 mM NaCl, 0.5% NP-40, 50 mM imidazole; eluted with 8 M urea; LC-MS/MS, label-free quantification against uncoated beads (t test, FDR 0.05), n = 4; only the target purified
Experiment [1] deals with T1, His10-SUMO3 IKR (I34A-K35A-R36A) (human (from the printed UniProt accession)) (UniProt P61956).
Experiment [2] has as its target T2, His10-SUMO2 QFI (Q30A-F31A-I33A) (human (from the printed UniProt accession)) (UniProt P55854).
In experiment [3] the target is T3, His10-SUMO3 QFI (Q31A-F32A-I34A) (human (from the printed UniProt accession)) (UniProt P61956).
Experiment [4] deals with T4, His10-SUMO2 IKR (I33A-K34A-R35A) (human (from the printed UniProt accession)) (UniProt P55854).
For experiment [5], the target named is T1, His10-SUMO3 IKR (I34A-K35A-R36A) (human). This is another data set of the same source.
For experiment [6], the target named is T2, His10-SUMO2 QFI (Q30A-F31A-I33A) (human). The source holds these as a separate data set.
Experiment [7] has as its target T3, His10-SUMO3 QFI (Q31A-F32A-I34A) (human). The source holds these as a separate data set.
In experiment [8] the target is T4, His10-SUMO2 IKR (I33A-K34A-R35A) (human). This is another data set of the same source.

Sequences of proteins named here, by UniProt entry; tags and fusion partners are left off.
UniProt P54132: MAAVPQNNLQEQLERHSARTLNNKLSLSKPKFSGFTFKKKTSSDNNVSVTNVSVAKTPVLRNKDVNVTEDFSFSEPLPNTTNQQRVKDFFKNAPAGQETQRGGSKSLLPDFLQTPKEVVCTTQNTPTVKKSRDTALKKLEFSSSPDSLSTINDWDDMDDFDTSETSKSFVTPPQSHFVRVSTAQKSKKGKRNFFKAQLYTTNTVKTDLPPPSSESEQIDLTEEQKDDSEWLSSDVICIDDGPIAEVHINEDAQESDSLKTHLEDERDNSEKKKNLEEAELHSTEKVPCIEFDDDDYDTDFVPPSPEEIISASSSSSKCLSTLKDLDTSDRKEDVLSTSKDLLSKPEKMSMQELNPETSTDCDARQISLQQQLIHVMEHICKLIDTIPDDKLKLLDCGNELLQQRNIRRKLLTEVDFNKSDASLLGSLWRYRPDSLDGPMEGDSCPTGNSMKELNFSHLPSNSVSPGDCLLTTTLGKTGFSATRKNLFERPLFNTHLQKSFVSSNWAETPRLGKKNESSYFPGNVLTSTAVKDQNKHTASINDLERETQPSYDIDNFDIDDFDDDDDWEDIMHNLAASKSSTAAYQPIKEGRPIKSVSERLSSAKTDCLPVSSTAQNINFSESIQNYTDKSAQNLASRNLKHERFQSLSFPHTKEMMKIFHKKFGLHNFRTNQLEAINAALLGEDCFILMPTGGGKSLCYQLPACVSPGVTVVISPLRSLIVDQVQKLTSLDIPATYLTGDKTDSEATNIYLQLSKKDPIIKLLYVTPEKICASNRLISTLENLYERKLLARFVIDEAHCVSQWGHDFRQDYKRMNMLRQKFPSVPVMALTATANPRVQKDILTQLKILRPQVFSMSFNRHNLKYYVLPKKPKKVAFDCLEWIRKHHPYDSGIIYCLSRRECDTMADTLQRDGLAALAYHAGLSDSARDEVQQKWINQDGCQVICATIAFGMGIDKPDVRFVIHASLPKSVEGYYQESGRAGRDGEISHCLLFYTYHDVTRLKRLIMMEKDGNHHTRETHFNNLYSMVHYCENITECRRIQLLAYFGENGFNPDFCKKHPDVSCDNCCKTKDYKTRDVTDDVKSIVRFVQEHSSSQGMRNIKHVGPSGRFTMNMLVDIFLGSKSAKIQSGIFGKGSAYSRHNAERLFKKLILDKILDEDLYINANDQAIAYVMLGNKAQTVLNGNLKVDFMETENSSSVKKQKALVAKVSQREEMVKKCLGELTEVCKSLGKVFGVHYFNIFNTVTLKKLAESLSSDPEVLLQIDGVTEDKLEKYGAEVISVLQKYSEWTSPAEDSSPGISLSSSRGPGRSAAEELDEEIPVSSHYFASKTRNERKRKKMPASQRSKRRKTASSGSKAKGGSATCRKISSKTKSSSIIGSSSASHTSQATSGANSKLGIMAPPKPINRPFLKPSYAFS
UniProt O75925: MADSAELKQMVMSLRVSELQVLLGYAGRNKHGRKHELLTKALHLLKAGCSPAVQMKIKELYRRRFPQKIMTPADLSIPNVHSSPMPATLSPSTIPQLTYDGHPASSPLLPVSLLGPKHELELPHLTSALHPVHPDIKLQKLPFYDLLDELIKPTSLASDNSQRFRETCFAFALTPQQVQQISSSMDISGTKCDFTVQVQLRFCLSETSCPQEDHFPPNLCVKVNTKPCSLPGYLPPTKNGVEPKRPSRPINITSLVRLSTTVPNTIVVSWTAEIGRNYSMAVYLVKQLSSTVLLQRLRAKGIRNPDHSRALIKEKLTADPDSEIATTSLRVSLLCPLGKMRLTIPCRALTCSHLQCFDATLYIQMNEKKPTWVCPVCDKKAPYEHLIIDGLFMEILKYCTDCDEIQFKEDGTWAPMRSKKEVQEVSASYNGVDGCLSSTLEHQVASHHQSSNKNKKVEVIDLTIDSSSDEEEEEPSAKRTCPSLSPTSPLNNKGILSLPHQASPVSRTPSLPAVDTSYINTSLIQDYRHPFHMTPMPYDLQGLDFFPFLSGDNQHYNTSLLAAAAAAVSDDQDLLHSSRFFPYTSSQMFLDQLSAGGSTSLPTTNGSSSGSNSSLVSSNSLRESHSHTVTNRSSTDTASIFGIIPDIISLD
UniProt Q8IY92: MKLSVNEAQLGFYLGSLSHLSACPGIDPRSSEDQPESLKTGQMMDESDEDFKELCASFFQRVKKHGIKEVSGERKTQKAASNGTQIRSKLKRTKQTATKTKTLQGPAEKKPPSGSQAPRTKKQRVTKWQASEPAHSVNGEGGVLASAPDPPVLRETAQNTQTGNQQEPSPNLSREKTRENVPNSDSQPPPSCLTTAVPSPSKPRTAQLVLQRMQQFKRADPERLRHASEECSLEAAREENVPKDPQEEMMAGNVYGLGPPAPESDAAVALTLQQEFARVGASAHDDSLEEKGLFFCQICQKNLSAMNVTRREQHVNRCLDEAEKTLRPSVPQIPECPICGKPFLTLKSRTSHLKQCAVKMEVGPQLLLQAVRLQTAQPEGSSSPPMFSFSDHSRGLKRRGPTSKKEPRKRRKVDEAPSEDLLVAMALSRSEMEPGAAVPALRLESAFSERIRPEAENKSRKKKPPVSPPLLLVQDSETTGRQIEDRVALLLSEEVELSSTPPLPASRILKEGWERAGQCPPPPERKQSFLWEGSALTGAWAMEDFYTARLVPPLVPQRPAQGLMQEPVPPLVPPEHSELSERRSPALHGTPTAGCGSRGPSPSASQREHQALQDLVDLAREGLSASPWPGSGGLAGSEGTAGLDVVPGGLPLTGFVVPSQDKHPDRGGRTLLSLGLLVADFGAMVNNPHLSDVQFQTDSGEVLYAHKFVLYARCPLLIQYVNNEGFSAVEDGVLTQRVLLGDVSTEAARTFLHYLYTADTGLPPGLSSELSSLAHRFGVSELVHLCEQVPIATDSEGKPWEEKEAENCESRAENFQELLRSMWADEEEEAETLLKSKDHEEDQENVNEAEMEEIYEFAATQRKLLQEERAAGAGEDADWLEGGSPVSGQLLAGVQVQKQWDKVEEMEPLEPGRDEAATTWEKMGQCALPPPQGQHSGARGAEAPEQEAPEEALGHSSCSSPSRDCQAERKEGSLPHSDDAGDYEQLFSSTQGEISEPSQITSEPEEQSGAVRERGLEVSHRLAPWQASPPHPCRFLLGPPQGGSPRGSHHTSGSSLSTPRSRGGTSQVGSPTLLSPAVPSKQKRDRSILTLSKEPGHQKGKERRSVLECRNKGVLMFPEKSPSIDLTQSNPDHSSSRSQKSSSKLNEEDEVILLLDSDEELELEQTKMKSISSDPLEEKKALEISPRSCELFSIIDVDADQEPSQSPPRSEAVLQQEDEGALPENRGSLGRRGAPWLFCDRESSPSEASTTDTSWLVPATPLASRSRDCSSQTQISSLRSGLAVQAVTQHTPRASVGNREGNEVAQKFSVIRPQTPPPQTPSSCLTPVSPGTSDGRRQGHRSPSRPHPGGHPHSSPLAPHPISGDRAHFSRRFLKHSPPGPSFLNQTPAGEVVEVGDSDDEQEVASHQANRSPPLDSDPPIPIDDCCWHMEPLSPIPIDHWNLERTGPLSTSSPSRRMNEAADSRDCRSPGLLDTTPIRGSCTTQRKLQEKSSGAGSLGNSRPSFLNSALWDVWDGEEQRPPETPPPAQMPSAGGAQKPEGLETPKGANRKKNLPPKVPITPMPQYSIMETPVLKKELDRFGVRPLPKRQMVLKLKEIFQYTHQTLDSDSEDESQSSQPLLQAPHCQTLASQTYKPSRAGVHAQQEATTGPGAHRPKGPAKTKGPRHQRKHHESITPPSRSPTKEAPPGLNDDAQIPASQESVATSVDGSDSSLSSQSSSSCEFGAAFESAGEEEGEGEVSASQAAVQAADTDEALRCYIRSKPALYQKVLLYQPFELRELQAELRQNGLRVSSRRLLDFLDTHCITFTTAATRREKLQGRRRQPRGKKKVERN
UniProt Q15542: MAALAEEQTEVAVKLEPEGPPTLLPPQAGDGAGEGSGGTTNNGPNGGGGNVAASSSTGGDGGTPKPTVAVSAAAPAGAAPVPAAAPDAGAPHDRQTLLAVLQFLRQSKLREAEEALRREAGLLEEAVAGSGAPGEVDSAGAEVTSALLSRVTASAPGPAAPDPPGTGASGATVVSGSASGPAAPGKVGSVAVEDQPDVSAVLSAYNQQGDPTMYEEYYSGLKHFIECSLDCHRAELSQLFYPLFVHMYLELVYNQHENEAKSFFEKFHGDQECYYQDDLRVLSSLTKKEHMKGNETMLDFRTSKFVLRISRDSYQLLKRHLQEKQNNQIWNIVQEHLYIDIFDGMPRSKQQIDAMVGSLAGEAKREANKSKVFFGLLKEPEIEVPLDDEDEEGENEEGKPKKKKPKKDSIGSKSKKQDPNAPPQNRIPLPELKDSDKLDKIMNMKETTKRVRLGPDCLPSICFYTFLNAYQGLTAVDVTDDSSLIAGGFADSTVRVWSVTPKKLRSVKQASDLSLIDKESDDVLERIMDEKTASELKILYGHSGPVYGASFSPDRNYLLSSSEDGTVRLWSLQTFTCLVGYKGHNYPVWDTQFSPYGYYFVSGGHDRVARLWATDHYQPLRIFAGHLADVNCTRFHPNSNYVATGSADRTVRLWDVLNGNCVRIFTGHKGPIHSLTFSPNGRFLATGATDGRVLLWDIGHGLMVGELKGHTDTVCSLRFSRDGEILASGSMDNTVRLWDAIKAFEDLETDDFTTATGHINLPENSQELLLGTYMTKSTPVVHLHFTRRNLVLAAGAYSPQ
UniProt Q5VZL5: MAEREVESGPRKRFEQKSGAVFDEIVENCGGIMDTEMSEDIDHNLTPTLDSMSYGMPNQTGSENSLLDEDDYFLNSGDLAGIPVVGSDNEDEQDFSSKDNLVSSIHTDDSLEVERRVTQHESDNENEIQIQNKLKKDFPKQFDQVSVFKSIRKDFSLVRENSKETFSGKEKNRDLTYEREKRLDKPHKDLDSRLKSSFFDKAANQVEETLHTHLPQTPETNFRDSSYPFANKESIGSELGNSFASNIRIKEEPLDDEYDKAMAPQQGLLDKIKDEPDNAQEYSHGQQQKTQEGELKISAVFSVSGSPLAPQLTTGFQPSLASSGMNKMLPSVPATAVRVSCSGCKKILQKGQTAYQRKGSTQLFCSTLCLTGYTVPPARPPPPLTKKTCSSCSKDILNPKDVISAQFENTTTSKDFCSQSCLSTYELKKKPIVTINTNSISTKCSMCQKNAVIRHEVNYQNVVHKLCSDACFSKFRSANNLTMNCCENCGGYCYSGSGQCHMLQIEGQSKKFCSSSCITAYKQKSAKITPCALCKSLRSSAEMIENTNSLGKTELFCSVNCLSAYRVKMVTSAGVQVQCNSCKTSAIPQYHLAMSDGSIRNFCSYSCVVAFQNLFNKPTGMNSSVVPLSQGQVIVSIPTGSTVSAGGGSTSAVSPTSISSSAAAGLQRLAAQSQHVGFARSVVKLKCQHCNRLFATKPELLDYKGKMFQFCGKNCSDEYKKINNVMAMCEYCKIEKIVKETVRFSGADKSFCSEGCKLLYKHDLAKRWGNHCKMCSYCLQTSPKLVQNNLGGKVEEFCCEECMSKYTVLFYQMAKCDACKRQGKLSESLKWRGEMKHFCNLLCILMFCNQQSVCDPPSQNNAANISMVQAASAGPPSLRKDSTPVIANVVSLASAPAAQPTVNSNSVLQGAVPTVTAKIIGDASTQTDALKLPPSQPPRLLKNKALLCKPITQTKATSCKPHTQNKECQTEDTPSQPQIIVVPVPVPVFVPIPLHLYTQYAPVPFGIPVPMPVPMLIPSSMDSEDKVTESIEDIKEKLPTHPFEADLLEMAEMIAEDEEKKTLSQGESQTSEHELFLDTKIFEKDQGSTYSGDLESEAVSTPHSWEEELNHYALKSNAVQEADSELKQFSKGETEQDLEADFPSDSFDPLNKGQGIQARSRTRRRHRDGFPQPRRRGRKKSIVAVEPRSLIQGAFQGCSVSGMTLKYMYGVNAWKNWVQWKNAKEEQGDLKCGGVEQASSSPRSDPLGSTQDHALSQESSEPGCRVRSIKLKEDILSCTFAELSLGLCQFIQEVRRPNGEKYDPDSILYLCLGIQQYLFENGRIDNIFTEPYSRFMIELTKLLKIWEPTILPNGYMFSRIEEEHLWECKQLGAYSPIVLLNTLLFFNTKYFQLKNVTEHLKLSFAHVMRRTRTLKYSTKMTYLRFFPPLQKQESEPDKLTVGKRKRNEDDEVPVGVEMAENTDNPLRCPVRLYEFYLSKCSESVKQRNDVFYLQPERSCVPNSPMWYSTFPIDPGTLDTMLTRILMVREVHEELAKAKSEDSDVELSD

Read-outs that look alike come from different tables or passages of the source. These are yes or no findings as the source states them, for the method shown. In cells and extracts the contact can be indirect. These calls come from enrichment with a bait or labelling near it, and not all partners need be listed. A no says only that the protein was not detected with the bait.

The source of these data is publication PMC12077520.

In the case of BLM (from UniProt P54132 1-1417), the binding result in experiment [1], in experiment [2], in experiment [3] and in experiment [4] was “no binding” throughout.

PIAS1 (from UniProt O75925 1-651): the binding result in experiment [1], in experiment [2], in experiment [3] and in experiment [4] was “no binding” each time.

On to SLX4 (from UniProt Q8IY92 1-1834), for which the binding entry in experiment [1], in experiment [2], in experiment [3] and in experiment [4] was “no binding” in each case.

For TAF5 (from UniProt Q15542 1-800), the binding result in experiment [2] and in experiment [4] was “binds” each time.

ZMYM4 (from UniProt Q5VZL5 1-1548): the binding entry in experiment [2] and in experiment [4] was “no binding” in each case.

For the molecule “valosin-containing protein (VCP) (from UniProt P55072 1-806)”, the binding entry in experiment [1], in experiment [2], in experiment [3] and in experiment [4] was “binds” each time.

B1: ZMYM3 (protein, UniProt Q14202 1-1370)
chain: MDPSDFPSPFDPLTLPEKPLAGDLPVDMEFGEDLLESQTAPTRGWAPPGPSPSSGALDLLDTPAGLEKDPGVLDGATELLGLGGLLYKAPSPPEVDHGPEGTLAWDAGDQTLEPGPGGQTPEVVPPDPGAGANSCSPEGLLEPLAPDSPITLQSPHIEEEETTSIATARRGSPGQEEELPQGQPQSPNAPPSPSVGETLGDGINSSQTKPGGSSPPAHPSLPGDGLTAKASEKPPERKRSERVRRAEPPKPEVVDSTESIPVSDEDSDAMVDDPNDEDFVPFRPRRSPRMSLRSSVSQRAGRSAVGTKMTCAHCRTPLQKGQTAYQRKGLPQLFCSSSCLTTFSKKPSGKKTCTFCKKEIWNTKDSVVAQTGSGGSFHEFCTSVCLSLYEAQQQRPIPQSGDPADATRCSICQKTGEVLHEVSNGSVVHRLCSDSCFSKFRANKGLKTNCCDQCGAYIYTKTGSPGPELLFHEGQQKRFCNTTCLGAYKKKNTRVYPCVWCKTLCKNFEMLSHVDRNGKTSLFCSLCCTTSYKVKQAGLTGPPRPCSFCRRSLSDPCYYNKVDRTVYQFCSPSCWTKFQRTSPEGGIHLSCHYCHSLFSGKPEVLDWQDQVFQFCCRDCCEDFKRLRGVVSQCEHCRQEKLLHEKLRFSGVEKSFCSEGCVLLYKQDFTKKLGLCCITCTYCSQTCQRGVTEQLDGSTWDFCSEDCKSKYLLWYCKAARCHACKRQGKLLETIHWRGQIRHFCNQQCLLRFYSQQNQPNLDTQSGPESLLNSQSPESKPQTPSQTKVENSNTVRTPEENGNLGKIPVKTRSAPTAPTPPPPPPPATPRKNKAAMCKPLMQNRGVSCKVEMKSKGSQTEEWKPQVIVLPIPVPIFVPVPMHLYCQKVPVPFSMPIPVPVPMFLPTTLESTDKIVETIEELKVKIPSNPLEADILAMAEMIAEAEELDKASSDLCDLVSNQSAEGLLEDCDLFGPARDDVLAMAVKMANVLDEPGQDLEADFPKNPLDINPSVDFLFDCGLVGPEDVSTEQDLPRTMRKGQKRLVLSESCSRDSMSSQPSCTGLNYSYGVNAWKCWVQSKYANGETSKGDELRFGPKPMRIKEDILACSAAELNYGLAQFVREITRPNGERYEPDSIYYLCLGIQQYLLENNRMVNIFTDLYYLTFVQELNKSLSTWQPTLLPNNTVFSRVEEEHLWECKQLGVYSPFVLLNTLMFFNTKFFGLQTAEEHMQLSFTNVVRQSRKCTTPRGTTKVVSIRYYAPVRQRKGRDTGPGKRKREDEAPILEQRENRMNPLRCPVKFYEFYLSKCPESLRTRNDVFYLQPERSCIAESPLWYSVIPMDRSMLESMLNRILAVREIYEELGRPGEEDLD
For B1, the binding entry in experiment [5], in experiment [6], in experiment [7] and in experiment [8] was “no binding” throughout.

B2: ZMYM2 (protein, UniProt Q9UBW7 1-1377)
chain: MDTSSVGGLELTDQTPVLLGSTAMATSLTNVGNSFSGPANPLVSRSNKFQNSSVEDDDDVVFIEPVQPPPPSVPVVADQRTITFTSSKNEELQGNDSKITPSSKELASQKGSVSETIVIDDEEDMETNQGQEKNSSNFIERRPPETKNRTNDVDFSTSSFSRSKVNAGMGNSGITTEPDSEIQIANVTTLETGVSSVNDGQLENTDGRDMNLMITHVTSLQNTNLGDVSNGLQSSNFGVNIQTYTPSLTSQTKTGVGPFNPGRMNVAGDVFQNGESATHHNPDSWISQSASFPRNQKQPGVDSLSPVASLPKQIFQPSVQQQPTKPVKVTCANCKKPLQKGQTAYQRKGSAHLFCSTTCLSSFSHKPAPKKLCVMCKKDITTMKGTIVAQVDSSESFQEFCSTSCLSLYEDKQNPTKGALNKSRCTICGKLTEIRHEVSFKNMTHKLCSDHCFNRYRMANGLIMNCCEQCGEYLPSKGAGNNVLVIDGQQKRFCCQSCVSEYKQVGSHPSFLKEVRDHMQDSFLMQPEKYGKLTTCTGCRTQCRFFDMTQCIGPNGYMEPYCSTACMNSHKTKYAKSQSLGIICHFCKRNSLPQYQATMPDGKLYNFCNSSCVAKFQALSMQSSPNGQFVAPSDIQLKCNYCKNSFCSKPEILEWENKVHQFCSKTCSDDYKKLHCIVTYCEYCQEEKTLHETVNFSGVKRPFCSEGCKLLYKQDFARRLGLRCVTCNYCSQLCKKGATKELDGVVRDFCSEDCCKKFQDWYYKAARCDCCKSQGTLKERVQWRGEMKHFCDQHCLLRFYCQQNEPNMTTQKGPENLHYDQGCQTSRTKMTGSAPPPSPTPNKEMKNKAVLCKPLTMTKATYCKPHMQTKSCQTDDTWRTEYVPVPIPVPVYIPVPMHMYSQNIPVPTTVPVPVPVPVFLPAPLDSSEKIPAAIEELKSKVSSDALDTELLTMTDMMSEDEGKTETTNINSVIIETDIIGSDLLKNSDPETQSSMPDVPYEPDLDIEIDFPRAAEELDMENEFLLPPVFGEEYEEQPRPRSKKKGAKRKAVSGYQSHDDSSDNSECSFPFKYTYGVNAWKHWVKTRQLDEDLLVLDELKSSKSVKLKEDLLSHTTAELNYGLAHFVNEIRRPNGENYAPDSIYYLCLGIQEYLCGSNRKDNIFIDPGYQTFEQELNKILRSWQPSILPDGSIFSRVEEDYLWRIKQLGSHSPVALLNTLFYFNTKYFGLKTVEQHLRLSFGTVFRHWKKNPLTMENKACLRYQVSSLCGTDNEDKITTGKRKHEDDEPVFEQIENTANPSRCPVKMFECYLSKSPQNLNQRMDVFYLQPECSSSTDSPVWYTSTSLDRNTLENMLVRVLLVKDIYDKDNYELDEDTD
Take B2: the binding entry in experiment [5], in experiment [6], in experiment [7] and in experiment [8] was “no binding” throughout.

B3: ERCC1 (protein, UniProt P07992 1-297)
chain: MDPGKDKEGVPQPSGPPARKKFVIPLDEDEVPPGVAKPLFRSTQSLPTVDTSAQAAPQTYAEYAISQPLEGAGATCPTGSEPLAGETPNQALKPGAKSNSIIVSPRQRGNPVLKFVRNVPWEFGDVIPDYVLGQSTCALFLSLRYHNLHPDYIHGRLQSLGKNFALRVLLVQVDVKDPQQALKELAKMCILADCTLILAWSPEEAGRYLETYKAYEQKPADLLMEKLEQDFVSRVTECLTTVKSVNKTDSQTLLTTFGSLEQLIAASREDLALCPGLGPQKARRLFDVLHEPFLKVP
B3: the binding result in experiment [5], in experiment [6], in experiment [7] and in experiment [8] was “no binding” throughout.
